According to the supplement of paper PMC10849652:
This is one part of the list.

Sequences of proteins named here, by UniProt entry; tags and fusion partners are left off. A change or cut given only in a name is not applied to a line headed by its entry.
UniProt Q86WJ1: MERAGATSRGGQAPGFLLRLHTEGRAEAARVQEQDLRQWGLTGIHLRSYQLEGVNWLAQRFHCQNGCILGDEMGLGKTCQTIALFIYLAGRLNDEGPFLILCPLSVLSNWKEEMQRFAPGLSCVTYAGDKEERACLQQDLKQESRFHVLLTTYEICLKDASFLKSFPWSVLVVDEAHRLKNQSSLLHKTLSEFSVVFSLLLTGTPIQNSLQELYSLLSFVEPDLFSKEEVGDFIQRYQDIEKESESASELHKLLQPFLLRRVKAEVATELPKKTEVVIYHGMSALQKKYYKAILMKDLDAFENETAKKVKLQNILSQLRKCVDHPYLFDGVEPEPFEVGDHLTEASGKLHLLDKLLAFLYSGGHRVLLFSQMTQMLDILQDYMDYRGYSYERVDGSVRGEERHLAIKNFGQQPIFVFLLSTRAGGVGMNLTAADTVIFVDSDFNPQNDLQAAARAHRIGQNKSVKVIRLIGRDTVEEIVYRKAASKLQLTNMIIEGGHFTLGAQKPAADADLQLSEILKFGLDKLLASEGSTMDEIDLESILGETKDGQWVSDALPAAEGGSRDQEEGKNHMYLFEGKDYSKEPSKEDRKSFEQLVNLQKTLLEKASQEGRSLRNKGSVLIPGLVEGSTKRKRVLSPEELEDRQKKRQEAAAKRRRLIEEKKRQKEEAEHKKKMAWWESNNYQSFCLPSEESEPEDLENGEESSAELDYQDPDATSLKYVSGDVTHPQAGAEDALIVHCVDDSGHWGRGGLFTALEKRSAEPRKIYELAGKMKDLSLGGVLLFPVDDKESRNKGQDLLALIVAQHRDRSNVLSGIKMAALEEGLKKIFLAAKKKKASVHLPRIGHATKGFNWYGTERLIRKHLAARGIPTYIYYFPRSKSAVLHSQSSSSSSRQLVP
UniProt O14646: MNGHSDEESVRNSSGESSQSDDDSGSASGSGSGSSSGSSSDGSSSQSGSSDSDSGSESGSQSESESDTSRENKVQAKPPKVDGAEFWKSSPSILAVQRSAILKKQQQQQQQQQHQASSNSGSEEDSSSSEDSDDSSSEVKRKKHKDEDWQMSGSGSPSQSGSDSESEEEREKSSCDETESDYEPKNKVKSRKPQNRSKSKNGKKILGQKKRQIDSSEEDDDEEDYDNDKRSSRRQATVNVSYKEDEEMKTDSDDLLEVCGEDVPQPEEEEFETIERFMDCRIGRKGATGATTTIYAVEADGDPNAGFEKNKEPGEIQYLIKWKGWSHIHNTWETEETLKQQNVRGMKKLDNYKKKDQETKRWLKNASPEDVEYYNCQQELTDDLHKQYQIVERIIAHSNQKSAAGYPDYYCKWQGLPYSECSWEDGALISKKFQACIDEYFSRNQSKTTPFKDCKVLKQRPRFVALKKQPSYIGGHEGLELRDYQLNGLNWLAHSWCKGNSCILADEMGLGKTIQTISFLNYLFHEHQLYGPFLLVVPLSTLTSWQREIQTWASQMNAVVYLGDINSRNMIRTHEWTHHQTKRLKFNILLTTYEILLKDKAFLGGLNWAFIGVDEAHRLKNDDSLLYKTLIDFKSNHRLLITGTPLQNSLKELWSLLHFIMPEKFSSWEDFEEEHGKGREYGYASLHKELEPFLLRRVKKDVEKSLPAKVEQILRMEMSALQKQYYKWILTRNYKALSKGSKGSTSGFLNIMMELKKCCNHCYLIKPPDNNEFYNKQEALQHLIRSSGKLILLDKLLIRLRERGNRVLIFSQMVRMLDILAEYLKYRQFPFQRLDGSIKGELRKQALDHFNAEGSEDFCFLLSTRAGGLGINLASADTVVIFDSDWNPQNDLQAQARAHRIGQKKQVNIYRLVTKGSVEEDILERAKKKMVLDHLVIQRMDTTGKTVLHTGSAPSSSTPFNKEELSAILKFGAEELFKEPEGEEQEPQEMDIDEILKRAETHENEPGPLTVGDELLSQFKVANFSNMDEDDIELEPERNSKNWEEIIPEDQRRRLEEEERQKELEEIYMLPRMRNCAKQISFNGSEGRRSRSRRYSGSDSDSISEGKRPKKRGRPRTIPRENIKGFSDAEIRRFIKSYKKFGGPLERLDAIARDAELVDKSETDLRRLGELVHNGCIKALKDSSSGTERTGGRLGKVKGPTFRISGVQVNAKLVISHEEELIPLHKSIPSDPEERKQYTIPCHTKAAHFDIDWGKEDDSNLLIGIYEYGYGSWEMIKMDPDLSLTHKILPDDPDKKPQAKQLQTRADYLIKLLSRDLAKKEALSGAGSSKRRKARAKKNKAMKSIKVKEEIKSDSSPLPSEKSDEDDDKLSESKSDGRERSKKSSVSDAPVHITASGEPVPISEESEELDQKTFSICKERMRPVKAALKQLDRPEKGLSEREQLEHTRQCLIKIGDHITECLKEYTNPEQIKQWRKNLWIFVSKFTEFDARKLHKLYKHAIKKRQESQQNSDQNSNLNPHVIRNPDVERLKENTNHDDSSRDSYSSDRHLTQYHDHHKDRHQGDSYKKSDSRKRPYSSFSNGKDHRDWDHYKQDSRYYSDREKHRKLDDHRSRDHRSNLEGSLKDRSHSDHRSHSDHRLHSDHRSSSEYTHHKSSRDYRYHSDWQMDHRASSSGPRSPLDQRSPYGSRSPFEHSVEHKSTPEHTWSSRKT
UniProt Q96SN8: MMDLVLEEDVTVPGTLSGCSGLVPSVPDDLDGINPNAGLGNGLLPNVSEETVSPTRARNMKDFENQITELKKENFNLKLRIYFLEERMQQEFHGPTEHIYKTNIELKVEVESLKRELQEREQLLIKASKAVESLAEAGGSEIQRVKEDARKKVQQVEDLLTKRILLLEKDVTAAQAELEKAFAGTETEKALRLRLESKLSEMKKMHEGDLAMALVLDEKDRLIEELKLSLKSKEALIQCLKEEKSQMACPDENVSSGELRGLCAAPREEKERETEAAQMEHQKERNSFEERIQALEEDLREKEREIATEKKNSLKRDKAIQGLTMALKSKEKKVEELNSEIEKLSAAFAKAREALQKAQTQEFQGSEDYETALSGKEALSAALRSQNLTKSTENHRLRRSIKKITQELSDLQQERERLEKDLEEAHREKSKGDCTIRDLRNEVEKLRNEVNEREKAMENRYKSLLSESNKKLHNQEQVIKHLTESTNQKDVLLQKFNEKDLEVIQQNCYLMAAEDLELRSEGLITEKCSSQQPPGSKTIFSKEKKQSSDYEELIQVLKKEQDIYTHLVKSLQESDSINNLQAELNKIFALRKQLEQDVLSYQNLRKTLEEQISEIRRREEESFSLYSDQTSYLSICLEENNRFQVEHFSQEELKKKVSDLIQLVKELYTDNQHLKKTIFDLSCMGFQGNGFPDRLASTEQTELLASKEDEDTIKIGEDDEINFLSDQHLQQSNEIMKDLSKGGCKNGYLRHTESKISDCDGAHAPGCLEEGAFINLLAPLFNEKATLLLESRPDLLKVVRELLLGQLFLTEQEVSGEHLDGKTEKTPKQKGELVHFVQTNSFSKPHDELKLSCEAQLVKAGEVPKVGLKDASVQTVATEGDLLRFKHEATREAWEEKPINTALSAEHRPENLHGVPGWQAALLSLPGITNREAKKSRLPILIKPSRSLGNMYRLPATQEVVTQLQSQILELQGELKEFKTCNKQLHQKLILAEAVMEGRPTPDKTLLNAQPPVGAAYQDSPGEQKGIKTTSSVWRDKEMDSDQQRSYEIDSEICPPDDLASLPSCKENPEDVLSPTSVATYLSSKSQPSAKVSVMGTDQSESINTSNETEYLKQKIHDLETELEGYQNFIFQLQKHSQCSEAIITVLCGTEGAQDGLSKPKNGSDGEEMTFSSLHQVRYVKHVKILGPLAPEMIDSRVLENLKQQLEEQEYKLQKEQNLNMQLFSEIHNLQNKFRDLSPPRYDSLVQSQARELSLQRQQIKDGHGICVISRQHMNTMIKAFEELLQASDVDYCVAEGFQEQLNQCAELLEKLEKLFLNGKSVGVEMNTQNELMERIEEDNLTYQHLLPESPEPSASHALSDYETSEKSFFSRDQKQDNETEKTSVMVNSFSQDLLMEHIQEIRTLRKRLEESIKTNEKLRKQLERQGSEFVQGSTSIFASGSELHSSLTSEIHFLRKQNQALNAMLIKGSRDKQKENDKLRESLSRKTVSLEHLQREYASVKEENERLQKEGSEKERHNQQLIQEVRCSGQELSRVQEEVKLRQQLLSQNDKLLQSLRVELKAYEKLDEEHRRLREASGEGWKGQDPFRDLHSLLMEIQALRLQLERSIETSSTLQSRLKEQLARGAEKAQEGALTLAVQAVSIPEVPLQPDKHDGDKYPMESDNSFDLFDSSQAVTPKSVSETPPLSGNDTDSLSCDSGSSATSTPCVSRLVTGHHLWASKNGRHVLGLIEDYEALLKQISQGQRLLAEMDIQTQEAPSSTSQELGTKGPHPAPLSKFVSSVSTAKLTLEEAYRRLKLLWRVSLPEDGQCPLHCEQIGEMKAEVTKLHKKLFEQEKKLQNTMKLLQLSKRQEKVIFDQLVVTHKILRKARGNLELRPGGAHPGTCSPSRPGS
UniProt P19022: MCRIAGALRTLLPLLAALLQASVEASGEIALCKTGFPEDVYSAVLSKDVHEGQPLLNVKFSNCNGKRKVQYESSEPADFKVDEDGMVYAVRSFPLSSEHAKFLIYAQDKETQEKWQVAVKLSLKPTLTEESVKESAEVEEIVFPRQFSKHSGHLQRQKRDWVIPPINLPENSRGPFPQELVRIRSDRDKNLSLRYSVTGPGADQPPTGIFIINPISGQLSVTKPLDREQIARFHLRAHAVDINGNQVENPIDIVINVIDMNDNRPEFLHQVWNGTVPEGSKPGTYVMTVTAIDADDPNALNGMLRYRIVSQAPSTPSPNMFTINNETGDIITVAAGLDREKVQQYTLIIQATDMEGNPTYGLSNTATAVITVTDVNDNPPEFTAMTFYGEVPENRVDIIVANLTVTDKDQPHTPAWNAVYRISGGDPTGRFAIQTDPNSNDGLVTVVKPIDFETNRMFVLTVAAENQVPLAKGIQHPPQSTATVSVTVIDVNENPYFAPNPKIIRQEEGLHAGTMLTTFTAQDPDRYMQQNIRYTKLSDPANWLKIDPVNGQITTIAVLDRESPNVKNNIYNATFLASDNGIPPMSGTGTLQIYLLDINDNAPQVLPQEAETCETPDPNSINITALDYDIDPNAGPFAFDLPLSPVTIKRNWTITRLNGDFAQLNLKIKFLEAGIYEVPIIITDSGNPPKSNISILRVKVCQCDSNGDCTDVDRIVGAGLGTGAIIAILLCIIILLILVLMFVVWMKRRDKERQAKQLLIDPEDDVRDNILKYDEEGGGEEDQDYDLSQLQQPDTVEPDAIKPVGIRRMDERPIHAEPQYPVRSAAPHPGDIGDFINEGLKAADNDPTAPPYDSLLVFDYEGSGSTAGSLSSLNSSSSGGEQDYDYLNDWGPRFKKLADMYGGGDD
UniProt Q86XR8: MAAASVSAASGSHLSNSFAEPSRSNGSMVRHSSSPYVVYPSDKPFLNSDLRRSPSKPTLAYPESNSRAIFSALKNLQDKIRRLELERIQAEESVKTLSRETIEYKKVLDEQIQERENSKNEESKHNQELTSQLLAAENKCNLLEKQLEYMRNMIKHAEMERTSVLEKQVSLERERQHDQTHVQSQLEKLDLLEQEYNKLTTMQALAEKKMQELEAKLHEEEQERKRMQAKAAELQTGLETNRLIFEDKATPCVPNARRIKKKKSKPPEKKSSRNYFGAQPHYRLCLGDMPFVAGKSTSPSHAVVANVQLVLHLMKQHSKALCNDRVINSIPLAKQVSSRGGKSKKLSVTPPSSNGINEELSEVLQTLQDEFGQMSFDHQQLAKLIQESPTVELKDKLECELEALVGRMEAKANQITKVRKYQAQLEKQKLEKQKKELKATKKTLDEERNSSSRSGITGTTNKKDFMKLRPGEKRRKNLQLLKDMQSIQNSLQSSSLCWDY
UniProt Q96EP1: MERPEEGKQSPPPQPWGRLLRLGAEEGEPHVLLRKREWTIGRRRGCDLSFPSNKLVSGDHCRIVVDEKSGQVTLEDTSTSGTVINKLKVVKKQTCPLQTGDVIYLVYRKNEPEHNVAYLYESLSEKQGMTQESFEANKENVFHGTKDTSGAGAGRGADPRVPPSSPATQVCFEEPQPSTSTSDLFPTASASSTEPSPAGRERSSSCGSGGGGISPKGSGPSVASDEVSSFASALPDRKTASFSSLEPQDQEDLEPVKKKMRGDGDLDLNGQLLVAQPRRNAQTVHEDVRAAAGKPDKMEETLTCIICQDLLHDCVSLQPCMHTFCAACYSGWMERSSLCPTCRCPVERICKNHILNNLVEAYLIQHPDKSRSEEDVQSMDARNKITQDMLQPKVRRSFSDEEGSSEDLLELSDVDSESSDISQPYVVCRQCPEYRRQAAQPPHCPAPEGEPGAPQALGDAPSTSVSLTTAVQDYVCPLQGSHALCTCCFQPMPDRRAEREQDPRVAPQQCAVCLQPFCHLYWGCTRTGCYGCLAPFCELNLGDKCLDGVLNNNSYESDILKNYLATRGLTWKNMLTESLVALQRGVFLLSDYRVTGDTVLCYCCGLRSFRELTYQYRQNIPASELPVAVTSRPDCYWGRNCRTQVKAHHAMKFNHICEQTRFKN

Tests used:
Assay in all cases: log2 fold change, soluble protein after heating vs DMSO (PISA); higher = thermal stabilisation; K562 cells, 10 uM, 30 min; active = over 0.2 and 3.5 SD of the protein, either way, in both replicates (recomputed)
[1] = compound: CC1=C(C=C(C=C1)NC(=O)C2=CC(=CC=C2)N(C)C)NC(=O)C3=CC=C(C=C3)O
Summary of the method: (§1)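 K562 cells at 2×10^6 cells/mL were treated with 10 μM compound for 30 min. Aliquots were heated for 3 min across 48°C-58°C, pooled, and extracted in PBS with 0.5% NP-40 at 4°C; soluble protein was the supernatant after 21,000xg for 90 min. Soluble protein was quantified by TMTpro 16plex LC-MS/MS with channel sums equalised, and reported as log2 fold change in thermal stability against DMSO controls, with values from duplicates.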

[2] = compound: CC1=CC=C(C=C1)SC2=C3C=C(SC3=CN=C2)C(=O)N
Summary of the method: as §1

[3] = compound: CC1=NC(=CC=C1)C2=C(N=C(N2)C(C)(C)C)C3=CC4=NC=CN=C4C=C3
Summary of the method: as §1

[4] = compound: CCCS(=O)(=O)Nc1ccc(F)c(C(=O)c2c[nH]c3ncc(-c4ccc(Cl)cc4)cc23)c1F [vemurafenib]
Summary of the method: as §1

[5] = compound: CCCS(=O)(=O)Nc1ccc(F)c(C(=O)c2c[nH]c3ncc(Cl)cc23)c1F
Summary of the method: as §1

[6] = compound: CCCc1cc(C)[nH]c(=O)c1CNC(=O)c1cc(-c2ccnc(N3CCN(C)CC3)c2)cc2c1cnn2C(C)C
Summary of the method: as §1

[7] = compound: CCN(CC)Cc1ccc2cc(COC(=O)Nc3ccc(C(=O)NO)cc3)ccc2c1 [givinostat]
Summary of the method: as §1

[8] = compound: CCN(CCCOc1ccc2c(Nc3cc(CC(=O)Nc4cccc(F)c4)[nH]n3)ncnc2c1)CCOP(=O)(O)O [barasertib]
Summary of the method: as §1

[9] = compound: CC[C@@H]1C(=O)N(C)c2cnc(Nc3ccc(C(=O)NC4CCN(C)CC4)cc3OC)nc2N1C1CCCC1
Summary of the method: as §1

[10] = compound: CC[C@@H]1C(=O)N(C)c2cnc(Nc3ccc(C(=O)N[C@H]4CC[C@H](N5CCN(CC6CC6)CC5)CC4)cc3OC)nc2N1C(C)C [volasertib]
Summary of the method: as §1

[11] = compound: CC[C@H](C)N1C=C(C2=C(C=C(C=C21)C3=CN=C(C=C3)N4CCNCC4)C(=O)NCC5=C(C=C(NC5=O)C)C)C
Summary of the method: as §1

[12] = compound: CCn1cc(-c2ccnc3[nH]c(-c4cccc(CN(C)C)c4)cc23)c(-c2ccc(NC(=O)N(C)C)cc2)n1
Summary of the method: as §1

[13] = compound: CN(C)CC(=O)Nc1ccc2[nH]c(=O)c3ccccc3c2c1
Summary of the method: as §1

[14] = compound: CN1C2=C(C3=C1C(=O)N(N=C3)CC4=CC(=CC=C4)N)SC(=C2)S(=O)C
Summary of the method: as §1

[15] = compound: CN1CCC(CNc2ccc3ncc(-c4cccc(OC(F)(F)F)c4)n3n2)CC1
Summary of the method: as §1

[16] = compound: CC1=C(C=C(C=C1)NC(=O)C2=CC(=CC=C2)C(C)(C)C#N)NC3=CC4=C(C=C3)N=CN(C4=O)C
Summary of the method: as §1

[17] = compound: CCCCN(Cc1ccc(C(=O)NO)cc1)C(=O)Nc1ccccc1 [Nexturastat A]
Summary of the method: as §1

[18] = compound: CC[C@H](C)[C@@H](C(=O)N[C@@H]([C@@H](C)O)C(=O)N[C@@H](CC(C)C)C(=O)[C@]1(CO1)C)NC(=O)[C@H]([C@@H](C)CC)N(C)C(=O)C [epoxomicin]
Summary of the method: as §1

[19] = compound: CCn1c(C(=O)N(C2CC2)C2CC2)cc2c3c(ncn3C)c(Nc3cc(C)n(C)n3)nc21
Summary of the method: as §1

[20] = compound: CN(CCOC1=CC=C(C=C1)C[C@H]2C(=O)NC(=O)S2)C3=CC=CC=N3 (racemic) [rosiglitazone]
Summary of the method: as §1

Measured: log2 fold change

CEBPZOS (UniProt A8MTT3)
inactive: [1] -0.015 | [2] 0.027 | [3] -0.016 | [4] 0.065 | [5] 0.132 | [6] -0.069 | [7] -0.029 | [8] 0.059 | [9] 0.002 | [10] -0.035 | [11] -0.038 | [12] 0.013 | [13] -0.001 | [14] -0.103 | [15] -0.015

CHD1L (UniProt Q86WJ1)
inactive: [16] 0.04 | [4] -0.165 | [12] -0.106 | [13] -0.125 | [15] -0.116

CDT1 (UniProt Q9H211)
inactive: [17] 0.096 | [18] 0.99

CHD1 (UniProt O14646)
inactive: [17] 0.166 | [18] -0.225 | [12] 0.009 | [15] 0.084

CENPK (UniProt Q9BS16)
inactive: [2] -0.016 | [3] 0.074 | [4] 0.026 | [5] 0.085 | [7] -0.016 | [8] -0.022 | [9] -0.238 | [10] -0.154 | [11] 0.105 | [19] -0.023 | [13] 0.012 | [20] 0.076

CFAP47 (UniProt Q6ZTR5)
inactive: [2] -0.159 | [17] -0.041 | [4] -0.11 | [5] -0.106 | [8] -0.035 | [9] 0.063 | [10] 0.065 | [18] -0.006 | [13] -0.248 | [14] 0.23

CDK5RAP2 (UniProt Q96SN8)
inactive: [3] -0.085 | [17] -0.011 | [4] -0.242 | [8] 0.272 | [18] -0.219 | [13] 0.108 | [20] -0.138

CDC42BPG (UniProt Q6DT37)
inactive: [4] 0.133 | [7] 0.1 | [9] -0.152 | [19] -0.105 | [13] 0.139

CEP83 (UniProt Q9Y592)
inactive: [1] -0.038 | [3] -0.258 | [8] 0 | [9] 0.056 | [20] 0.008

CDC7 (UniProt O00311)
inactive: [4] 0.049 | [13] -0.036

CDS1 (UniProt Q92903)
inactive: [17] 0.091 | [6] -0.199 | [7] 0.001 | [8] 0.063 | [18] -0.019 | [19] 0.048 | [20] 0.03 | [14] 0.03

CDH2 (UniProt P19022)
inactive: [2] 0.2 | [3] -0.003 | [5] -0.162 | [10] -0.245 | [12] 0.134 | [15] 0.13

CENPX (UniProt A8MT69)
inactive: [16] -0.04 | [7] 0.321 | [9] 0.003 | [19] -0.181

Reprinted from the results shown (2 entries):
CFAP47 (UniProt Q6ZTR5)
inactive: [2] -0.159 | [17] -0.041 | [4] -0.11 | [5] -0.106 | [8] -0.035 | [9] 0.063 | [10] 0.065 | [18] -0.006 | [13] -0.248 | [14] 0.23

CDK5RAP2 (UniProt Q96SN8)
inactive: [3] -0.085 | [17] -0.011 | [4] -0.242 | [8] 0.272 | [18] -0.219 | [13] 0.108 | [20] -0.138

More entries

CHCHD10 (UniProt Q8WYQ3)
inactive: [1] -0.06 | [2] -0.032 | [3] 0.161 | [17] 0.028 | [4] 0.098 | [5] 0.069 | [6] 0.034 | [7] -0.215 | [8] -0.012 | [9] -0.063 | [10] 0.037 | [11] 0.124 | [18] 0.018 | [19] -0.011 | [13] 0.097 | [20] 0.029

CEBPG (UniProt P53567)
inactive: [1] -0.062 | [2] -0.07 | [5] -0.16 | [9] 0.008 | [10] 0.132 | [11] -0.395 | [12] 0.081 | [15] 0.098

CEBPZ (UniProt Q03701)
inactive: [16] -0.263 | [4] -0.028 | [6] 0.047 | [12] -0.137 | [13] 0.049 | [14] 0.161 | [15] 0.053

CEP85 (UniProt Q6P2H3)
inactive: [1] 0.083 | [2] 0.018 | [4] -0.035 | [5] -0.053 | [6] 0.172 | [8] 0.201 | [9] -0.396 | [10] 0.009 | [12] 0.074 | [13] -0.131 | [20] 0.057 | [14] 0.114 | [15] -0.052

CEP57 (UniProt Q86XR8)
inactive: [16] -0.094 | [6] -0.029 | [11] -0.289 | [12] 0.105 | [15] -0.113

CHFR (UniProt Q96EP1)
inactive: [2] 0.163 | [3] 0.018 | [17] 0.128 | [4] 0.12 | [5] -0.067 | [6] -0.344 | [9] -0.045 | [10] -0.204 | [18] 0.145 | [13] -0.042

CFAP58 (UniProt Q5T655)
inactive: [1] 0.185 | [2] 0.07 | [5] -0.175 | [6] -0.219 | [9] -0.353 | [10] -0.04 | [12] -0.112 | [15] -0.272
